Cell number change and AC50 data for 60 molecules are collected here from PubChem BioAssay AID2685 (National Center for Advancing Translational Sciences (NCATS), 2010).

The other results are listed elsewhere or left out. These are further read-outs of the screen, such as a control signal, another cell line or another target. No call is given for them. Compounds called inactive in the main read-out are mostly missing here. Potencies come from curve fits of mixed quality, noted in brackets.

This assay in a line: qHTS Assay for Lipid Storage Modulators in Drosophila S3 Cells.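 As to Cell number change: cells counted by Cell Tracker Red CMTPX staining in the red channel.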 Conditions: BODIPY lipid droplet fluorescence, 18-24 h; for cell number change: measured here: cell count max response, cells fed with added oleic acid. The procedure, abridged: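 Drosophila S3 cells loaded with oleic acid (400 uM, as added) and compounds at several concentrations; lipid droplets imaged by 488-nm laser-scanning cytometry, 500–530 nm intensity and object ratio to cell channel. Percent activity normalized to 20 uM Triacsin C.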

[1] abbreviates: measured here: cell number channel AC50, cells fed with added oleic acid.
Where [2] appears, read: measured here: lipid fluorescence (Fed channel) AC50, cells fed with added oleic acid.

The AC50 is the midpoint of the concentration-response curve, whichever way the signal moves. Higher therefore signals weaker potency. As to `C=CCOC(=O)c1ccc(-n2cnc(C)n2)nc1`, the cell number change was -40.3%. In addition, under setting [1], the AC50 was 29.1 µM [falling, single point]. As for `O=C1c2ccccc2C(Nc2ccccc2)N1c1ccc(Cl)cn1` (stereo unspecified), the AC50 was 2.31 µM [rising, partial curve] under setting [1] and 29.1 µM [rising, partial curve, poor fit] under setting [2]. For `CC1CN(S(=O)(=O)c2ccc(C(=O)Nc3nnc(-c4ccco4)o3)cc2)CC(C)O1` (stereo unspecified), the cell number change came out at 22.4%. The AC50 under setting [2] was 1.46 µM [rising, full curve]. As to `O=C(CSC(=S)N1CCCC1)NCCc1ccccc1`, the cell number change amounted to 6.92%. Besides, under setting [2], the AC50 is 6.51 µM [rising, single point]. `COc1ccc(Oc2ncc(CN3CCN(c4ccccc4)CC3)s2)cc1`: the AC50 runs as follows: under setting [1], 6.51 µM [falling, single point]; under setting [2], 29.1 µM [falling, single point]. On to `Cc1ccccc1OCC(=O)OCC(=O)Nc1cc(S(C)(=O)=O)ccc1Cl`, for which the cell number change is -19.2%. Take `CCCCNC(=O)c1oc2ccc(S(=O)(=O)N3CCCC3)cc2c1C`: the cell number change was -6.52%.

As for `CN(C)CCCN1C(=O)C(=O)/C(=C(/O)c2ccncc2)C1c1cccnc1` (stereo unspecified), the cell number change was -3.39%. Moreover, the AC50 under setting [2] was 3.26 µM [falling, single point]. In the case of `CC(=O)Nc1ccc(NC(=O)COC(=O)Cc2c[nH]c3ccccc23)cc1`, the cell number change is -26%. Further, the AC50 under setting [2] is 5.17 µM [falling, partial curve, poor fit].

As for `Cc1cc(C(=O)CSc2nncn2C)c(C)n1-c1ccccc1`, the cell number change was 9.71%. For the molecule `CCN(CC)N=Nc1[nH]nc2nc(C)cc(C)c12`, the cell number change is 7.13%. Further, the AC50 under setting [2] was 0.00461 µM [rising, full curve, poor fit].

Take `Cc1[nH]c(C)c(S(=O)(=O)N(C)Cc2ccccc2)c1C(=O)N1CCCC1`: the cell number change is -7.91%. Besides, the AC50 under setting [2] is 29.1 µM [rising, single point].

Take `O=C(c1ccc(Cl)c(Cl)c1)N1CCC(=O)N(C(COCc2ccc(Cl)cc2)Cc2ccccc2)CC1` (stereo unspecified): the cell number change is -8.07%. In addition, the AC50 under setting [2] is 9.2 µM [rising, partial curve]. In the case of `CC(=O)c1ccc(N2CCN(C(=O)Nc3ccc(C(C)C)cc3)CC2)cc1`, the cell number change was -40.8%. Under setting [1], the AC50 was 29.1 µM [falling, single point]. Also, under setting [2], the AC50 is 1.64 µM [falling, partial curve].

On to `COC(=O)CNC(c1ccccc1)c1cc(Br)ccc1NS(=O)(=O)c1ccccc1` (stereo unspecified), for which the cell number change worked out at 11.3%. In addition, under setting [2], the AC50 was 2.06 µM [rising, partial curve]. As for `Cc1ccc(C(=O)N(C)Cc2ccc(N3CCOCC3)cc2)cc1S(=O)(=O)NCc1ccccc1`, the cell number change was -11.7%. Further, the AC50 under setting [2] is 0.00461 µM [falling, full curve, poor fit].

On to `COc1ccccc1-c1nnc(SCC(=O)NNC(=O)c2ccccc2F)n1C`, for which the cell number change was 1.55%. Under setting [2], the AC50 is 7.31 µM [rising, partial curve, poor fit]. For the molecule `Nc1nnc(SCC(=O)Nc2ccccc2N2CCOCC2)s1`, the cell number change was -71.7%. In addition, under setting [1], the AC50 was 9.2 µM [falling, partial curve]. Besides, the AC50 under setting [2] is 16.4 µM [falling, partial curve, poor fit]. Turning to `COC(=O)c1ccc(C(=O)OC)c(NC(=O)CS(=O)(=O)Cc2ccccc2)c1`, the cell number change was -13.4%. Also, the AC50 under setting [2] is 23.1 µM [rising, partial curve, poor fit].

Consider `O=C(CSc1cc(Cl)ccc1Cl)NC1CC1`, for which the cell number change is -3.74%. Moreover, the AC50 under setting [2] is 16.4 µM [rising, partial curve]. Take `COc1ccccc1/C=C/CN1CCSCC1`: the cell number change worked out at 14.5%. Further, under setting [2], the AC50 was 3.66 µM [rising, partial curve]. As to `Cn1c2ccccc2c2cnn(CC(=O)NCCCN3CCN(c4ccccc4F)CC3)c(=O)c21`, the cell number change was 5.19%. As to `COc1cccc(/C=N/Nc2nc(-c3cccnc3)nc3ccccc23)c1`, the cell number change was 5.98%. Also, the AC50 under setting [2] is 0.461 µM [rising, single point]. For the molecule `Cc1ccccc1NC(=O)c1c(-c2ccccc2)noc1C`, the cell number change is -43.7%. For the same molecule, the AC50 under setting [1] is 14.6 µM [falling, partial curve, poor fit]. In the case of `CNc1ccc(Br)cc(C(=O)/C=C/c2cccc(OC)c2OC)c1=O`, the cell number change is -20.8%. Further, the AC50 under setting [2] is 20.6 µM [falling, partial curve]. In the case of `CCN(CC)c1ccc(/C=N/NC(=S)NCc2ccco2)cc1`, under setting [2], the AC50 is 3.66 µM [rising, single point]. For the molecule `COc1ccc(NC2CCCN(C(=O)CCc3ccccc3F)C2)cc1` (stereo unspecified), the cell number change is -6.12%. Further, the AC50 under setting [2] was 0.731 µM [rising, full curve]. For the molecule `Cc1cc(=O)oc2c(C)c(OCC(=O)N3CC[C@@]4(O)CCCC[C@H]4C3)ccc12`, under setting [2], the AC50 was 20.6 µM [falling, partial curve]. Take `Cc1nn(C)cc1C(C(=O)NC1CCCCC1)N(Cc1ccc(F)cc1)C(=O)c1cnccn1` (stereo unspecified): the cell number change worked out at 33.1%. The AC50 under setting [1] is 29.1 µM [rising, single point].

As for `CC(=O)Nc1ccccc1N(CC(O)Cn1c2ccccc2c2ccccc21)S(=O)(=O)c1ccc(C)cc1` (stereo unspecified), the cell number change came out at 0.628%. Also, the half-maximal activity concentration (AC50) under setting [2] was 6.51 µM [falling, single point]. With `O=C(Nc1ccccc1)N1CCn2c1nc1ccccc12`, the cell number change came to 9.92%. Also, under setting [2], the AC50 is 0.0058 µM [rising, full curve, poor fit]. With `Cc1ccc(S(=O)(=O)N2[C@@H](c3ccc(Cl)cc3)C(C(=O)O)=CC[C@H]2c2ccc(Cl)cc2)cc1`, the cell number change is -45.6%. Moreover, under setting [1], the AC50 is 25.9 µM [falling, partial curve, poor fit]. With `COc1ccc(/C=N/N2C(=O)CN(C(=O)c3ccccc3)C2c2ccc(OC)cc2)cc1` (stereo unspecified), the cell number change came to 22.6%. Turning to `CCc1nnc(NS(=O)(=O)c2ccc(NC(=O)Nc3ccc(OC)cc3)cc2)s1`, the cell number change amounted to 2.33%. Besides, the AC50 under setting [2] was 3.26 µM [rising, single point]. Take `C=CCN(c1ccccc1)S(=O)(=O)c1cccc(C(=O)NCc2ccncc2)c1`: the AC50 under setting [1] was 1.84 µM [rising, partial curve] and the AC50 under setting [2] was 2.91 µM [rising, partial curve, poor fit]. Take `CC(C)CCn1c(=O)c2ccccc2n2c(CN3CCOCC3)nnc12`: the cell number change was -1.81%. For the same molecule, under setting [1], the half-maximal activity concentration (AC50) is 0.411 µM [rising, full curve, poor fit]. Besides, under setting [2], the AC50 is 0.92 µM [rising, full curve, poor fit]. In the case of `O=C(O)c1ccc(Cl)cc1Nc1nc2cc(Cl)ccc2o1`, the cell number change is 21.8%. The AC50 under setting [2] is 0.082 µM [rising, partial curve, poor fit]. For `O=C(NCC1CCCO1)c1ccc2c(=O)n(Cc3ccco3)c(SCC(=O)N3CCCC3)nc2c1` (stereo unspecified), the cell number change is -21.9%.

For `COc1ccc(C(=O)N2CCN(c3cccc(C)c3C)CC2)cc1S(=O)(=O)NC1CC1`, the AC50 under setting [1] was 2.31 µM [rising, single point].

For `CCCCOc1ccc(CSCCN)cc1Cl`, the cell number change stood at 2.46%. For the same molecule, under setting [2], the concentration at half-maximal activity (AC50) is 6.51 µM [rising, single point]. As for `O=C(Nc1cccc(NC(=O)c2ccccc2)n1)c1ccccc1`, the cell number change came out at 10.9%. `CC(Sc1ncccn1)C(=O)NC1CCCC1` (stereo unspecified): the cell number change was -1.75%. The AC50 under setting [2] was 13 µM [rising, partial curve]. In the case of `OC(CNCc1ccccc1F)COc1cccc2ccccc12` (stereo unspecified), the cell number change amounted to 18.3%. With `Cc1cccc(OCC(=O)OCC(=O)c2c(N)n(C)c(=O)n(C)c2=O)c1C`, the cell number change was -50.5%. Further, the AC50 under setting [1] was 23.1 µM [falling, single point]. For the same molecule, the concentration at half-maximal activity (AC50) under setting [2] was 0.058 µM [falling, full curve, poor fit]. As to `CCCN(C(=O)CSCC(=O)Nc1ccc(OC)cc1)c1c(N)n(Cc2ccccc2)c(=O)[nH]c1=O`, the AC50 under setting [2] was 1.84 µM [rising, partial curve].

Regarding `O=C(Nc1ccc2snnc2c1)N1CCN(c2ccccc2)CC1`, the cell number change is -27.3%. Besides, under setting [2], the AC50 was 29.1 µM [falling, single point].

With `CC(CC(=O)N1CCN(C(=O)c2ccccc2)CC1)c1ccccc1` (stereo unspecified), the cell number change amounted to 3.55%. The AC50 under setting [2] was 6.51 µM [rising, partial curve, poor fit]. On to `O=C(CCc1nnc(Cc2ccc3c(c2)OCO3)o1)NCCc1ccccc1Cl`, for which the concentration at half-maximal activity (AC50) under setting [1] was 6.51 µM [rising, single point]. Consider `CC1(C)C[C@H]2C3=CCC4[C@@]5(C)CC[C@H](O)[C@](C)(CO)C5CC[C@@]4(C)[C@]3(C)C[C@H]3O[C@@H]1[C@H](O)[C@]32CO` (stereo partly specified), for which the cell number change is -43.8%. Further, the AC50 under setting [1] is 2.06 µM [falling, full curve]. Further, the AC50 under setting [2] was 6.51 µM [falling, full curve, poor fit]. Take `O=C(COc1ccc(S(=O)(=O)N2CCOCC2)cc1Cl)NCCCn1ccnc1`: the cell number change is -6.58%.

Take `CC(=O)NC(Cc1ccc(F)cc1)C(=O)NC1CCN(C(=O)Nc2ccccc2C)CC1` (stereo unspecified): the cell number change came out at 1.25%. Further, the AC50 under setting [2] is 16.4 µM [rising, single point]. `Cc1cccc(OCc2nnc(SCC(=O)NC3CCCC3)n2C)c1`: the cell number change amounted to 1.9%. For `CCn1cc(C(=O)N[C@@H](CCSC)C(=O)NC(C)(C)CO)c(=O)c2cc3c(cc21)OCO3`, the cell number change stood at 27%. Also, the concentration at half-maximal activity (AC50) under setting [2] is 8.2 µM [rising, partial curve, poor fit]. In the case of `COCC(=O)N1CCC(n2nnc3cc(C(F)(F)F)ccc32)CC1`, the cell number change was -1.19%. For `COc1cc(C=Nc2c(C)cc(C)cc2C)ccc1OC(C)=O`, the cell number change was -47.1%. Besides, the concentration at half-maximal activity (AC50) under setting [1] was 29.1 µM [falling, single point].

As for `O=C(N/N=C\c1cccs1)c1ccccc1-n1cccc1`, the cell number change is 1.03%. Also, the AC50 under setting [1] was 1.03 µM [rising, full curve]. Also, the half-maximal activity concentration (AC50) under setting [2] is 0.651 µM [rising, partial curve, poor fit]. For the molecule `CCc1ccc(N(CC)c2ncnc3nc[nH]c23)cc1`, the cell number change is -20%. Besides, the AC50 under setting [2] was 18.4 µM [falling, single point].

Consider `Cc1cc(C)n(CC(=O)n2nc(C)cc2C)n1`, for which the cell number change is -72.8%. Moreover, the AC50 under setting [1] is 14.6 µM [falling, partial curve]. The AC50 under setting [2] is 6.51 µM [falling, single point].

Take `Cc1ccc(C)n1CCN1CCN(CC(=O)Nc2cc(C(F)(F)F)ccc2Cl)CC1`: the cell number change is -2.37%. Under setting [1], the AC50 was 0.291 µM [falling, single point]. `CCOc1ccc(CCNC(=O)C(CCC(N)=O)NC(=O)OCc2ccccc2)cc1OCC` (stereo unspecified): the cell number change is -8.08%. Moreover, the AC50 under setting [2] is 6.31 µM [falling, single point].
